# These are yes or no findings as the source states them, for the method shown. In cells and extracts the contact can be indirect. A yes stands for co-enrichment or nearness to the bait. Other partners may have been found.
# B1: Annexin A1 (protein, UniProt P04083 1-346)
# chain: MAMVSEFLKQAWFIENEEQEYVQTVKSSKGGPGSAVSPYPTFNPSSDVAALHKAIMVKGVDEATIIDILTKRNNAQRQQIKAAYLQETGKPLDETLKKALTGHLEEVVLALLKTPAQFDADELRAAMKGLGTDEDTLIEILASRTNKEIRDINRVYREELKRDLAKDITSDTSGDFRNALLSLAKGDRSEDFGVNEDLADSDARALYEAGERRKGTDVNVFNTILTTRSYPQLRRVFQKYTKYSKHDMNKVLDLELKGDIEKCLTAIVKCATSKPAFFAEKLHQAMKGVGTRHKALIRIMVSRSEIDMNDIKAFYQKMYGISLCQAILDETKGDYEKILVALCGGN
# modifications: biotin (lysate labelled with sulfo-NHS-LC biotin)
# B2: Protein S100-A8 (protein, UniProt P05109 1-93)
# chain: MLTELEKALNSIIDVYHKYSLIKGNFHAVYRDDLKKLLETECPQYIRKKGADVWFKELDINTDGAVNFQEFLILVIKMGVAAHKKSHEESHKE
# modifications: biotin (lysate labelled with sulfo-NHS-LC biotin)
# Molecular target: MAV_1356 protein (M. avium calmodulin-like protein) (Mycobacterium avium subsp. hominissuis 104)
# Experiment: affinity purification with mass spectrometry; only the target purified
row,Binder,binding
1,B1,binds
2,B2,binds

# Source: publication PMC5103417
